Results are given in words; binding and its absence hold for the method and conditions named. Some results given as binding are weak or reduced against the parent protein; the word gives no strength.
B1: P46 (peptide)
peptide: HISKYILRWRPKNSV
B2: cNP8 (peptide)
peptide: HIGKYGLRWRPKGSV
modifications: cyclic: N terminus amino acid bound to the C terminus amino acid
B3: P12 (peptide)
peptide: PSHISKYILRWRPK

Sequences of proteins named here, by UniProt entry; tags and fusion partners are left off. Residues count along the entry.
UniProt P01137, residues 279-390: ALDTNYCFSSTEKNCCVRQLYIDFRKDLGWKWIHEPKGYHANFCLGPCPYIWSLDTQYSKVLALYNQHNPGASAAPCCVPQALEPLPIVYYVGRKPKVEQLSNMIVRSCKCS
UniProt P01127, residues 82-190: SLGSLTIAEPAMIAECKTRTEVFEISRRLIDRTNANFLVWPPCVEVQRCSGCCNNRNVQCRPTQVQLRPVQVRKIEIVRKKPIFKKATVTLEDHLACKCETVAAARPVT

Molecular target: Transforming Growth Factor-Beta1 (UniProt P01137)
Experiment: surface plasmon resonance (Biacore T200)

binding, binds:
B1, B2, B3

Molecular target: platelet-derived growth factor-BB (UniProt P01127)
Experiment: surface plasmon resonance (Biacore T200)

binding, binds:
B1, B2, B3
